# Results reported in PubChem BioAssay AID1439 (NMMLSC, 2008).
# By UniProt entry, the sequences of proteins in these tests, tags left out.
# UniProt P09471, whole entry, looked up: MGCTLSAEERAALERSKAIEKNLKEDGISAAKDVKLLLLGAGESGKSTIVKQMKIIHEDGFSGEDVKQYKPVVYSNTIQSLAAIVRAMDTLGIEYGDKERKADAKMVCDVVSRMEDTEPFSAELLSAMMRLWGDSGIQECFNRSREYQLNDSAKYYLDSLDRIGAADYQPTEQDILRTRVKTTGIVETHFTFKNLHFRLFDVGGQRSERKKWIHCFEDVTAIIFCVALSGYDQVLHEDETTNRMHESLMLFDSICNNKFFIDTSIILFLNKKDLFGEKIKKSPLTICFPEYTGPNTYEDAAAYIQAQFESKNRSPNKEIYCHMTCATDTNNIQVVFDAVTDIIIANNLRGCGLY
# The whole screen tested about 220,000 compounds, of which about 770 (0.35%) were called active. Inconclusive results, whose numbers are uncertain, are shown with a selection of clear calls. Cut-off read from the data, not from the text of the source: active = binding response below about 49% or above about 150%; inconclusive = no clear call, values can overlap the other calls; inactive = in between.
# Target: Guanine nucleotide-binding protein G(o) subunit alpha (Homo sapiens) (UniProt P09471)
# Assay: RGS7-Galphao binding modulators, primary screen, biochemical, multiplexed bead flow cytometry (AID 1439);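 note: fluorescent Galphao held in activated GDP-AlF4 state binding bead-coupled RGS7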
# Settings: at 10 µM, actives lie on both sides
row,SMILES,binding response (% of control)
1,COc1ccccc1N1C(=S)NC2CS(=O)(=O)CC21 (stereo not drawn),inconclusive: 107%
2,CCC(=O)Nc1cccc(C2=NOC3(C2)C[C@@H](C(N)=O)N(C(=O)c2cc([N+](=O)[O-])cc([N+](=O)[O-])c2C)C3)c1 (stereo partly drawn),inconclusive: 120%
3,COc1ccc(C2NC(=O)Cc3cc(OC)c(OC)cc32)cc1OC (stereo not drawn),inconclusive: 101%
4,Cc1ccc(NC(=O)NCC(c2cccnc2)N2CCOCC2)cc1 (stereo not drawn),inactive: 100%
5,NC(=S)C1COc2ccccc2O1 (stereo not drawn),inconclusive: 85.7%
6,CCN(CC)S(=O)(=O)c1ccc(C(=O)NC(C)(C)C)cc1,inactive: 108%
7,CCCn1c(CCC(=O)O)nc2cc(S(=O)(=O)N(CC)CC)ccc21,inconclusive: 107%
8,CC1(C)CC(NC(=O)c2sc3cc(Cl)ccc3c2Cl)CC(C)(C)N1,inconclusive: 92.4%
9,COc1ccc(/C=C(/CC(=O)Nc2ccccc2)c2nc3ccccc3s2)cc1,inactive: 74.2%
10,CC1CCC/C=C/C(=O)c2c(O)cc(O)cc2CC(=O)O1 (stereo not drawn),inconclusive: 56.1%
11,CCOC(=O)N1CCN(C(=O)CS(=O)(=O)c2cn(Cc3ccc(F)cc3)c3ccccc23)CC1,inconclusive: 98.7%
12,Cc1ccc(Oc2ccc(C(F)(F)F)cc2[N+](=O)[O-])c([N+](=O)[O-])n1,inconclusive: 124%
13,Cc1csc2sc(-c3ccnc(SCC(=O)NCc4ccccc4)n3)c(C)c12,inconclusive: 90.2%
14,CCc1[nH]c(C(=O)O)c(C)c1C(=O)OC,inconclusive: 144%
15,Cc1ccc2[nH]c(O)c(N=Nc3nc4ccccc4s3)c2c1,inconclusive: 111%
16,CCOc1ccc(NC(=S)Nc2ccccc2C2(C)CC2)cc1,inconclusive: 141%
17,Cc1ccc(S(=O)(=O)N2CCOCC2)cc1C(=O)c1nccn1C,inconclusive: 103%
18,CCOC(=O)N1CCN(C(=O)/C(=C/c2ccc(Br)cc2)NC(=O)c2ccc(OC)cc2)CC1,inactive: 112%
19,O=C(O)c1ccc(-c2ccc(/C=C3\NC(=O)N(Cc4ccc(Cl)cc4)C3=O)o2)cc1Cl,inactive: 98.2%
20,CN(C)C(=O)CSc1nnc(NC(=O)CCc2ccccc2)s1,inconclusive: 110%

row,SMILES,binding response (% of control)
1,Cc1ccc(/C=C/C(=O)NC(=S)N2CCN(c3ccc(F)cc3)CC2)cc1,inconclusive: 110%
2,Cc1nnc(Sc2cc(C(=O)NC3CC3)c3ccccc3n2)s1,inconclusive: 104%
3,COc1ccc([N+](=O)[O-])cc1N(CC(=O)Nc1ccccc1C(=O)NC(C)C)S(C)(=O)=O,inconclusive: 109%
4,CCOC(=O)c1ccc(N=c2scc(C)n2CC)cc1,inconclusive: 91.3%
5,CC(C)CNC(=O)c1ccc(COc2ccc(Cl)cc2Cl)o1,active: 48.5%
6,Cc1cccc(NNC(=O)C(=O)NNc2cccc(C)c2)c1,inconclusive: 108%
7,CCOC(=O)c1[nH]ncc1CN1CCN(Cc2ccc(C)cc2)C(CCO)C1 (stereo not drawn),inactive: 102%
8,Cc1nc(CCNC(=O)CC2C(=O)NCCN2Cc2ccc(F)cc2)sc1C (stereo not drawn),inactive: 99%
9,O=C(Nc1nc2ccccc2s1)c1cccc(S(=O)(=O)N2CCc3ccccc32)c1,inconclusive: 102%
10,C/C(=C/c1ccccc1)C(=O)N1CC(C)OC(C)C1 (stereo not drawn),inconclusive: 133%
11,C=CCCCN(Cc1ccccc1)S(=O)(=O)c1ccccc1Br,inconclusive: 114%
12,O=C(CNC1CC1)Nc1cc(C(F)(F)F)ccc1Cl,inconclusive: 105%
13,O=C(Nc1ccccc1)Nc1ccc(-n2ccc(C(F)(F)F)n2)cc1,inconclusive: -39.4%
14,CCOC(=O)c1sc(NC(=S)NC(=O)c2ccccc2Cl)c(C(=O)OCC)c1C,inactive: 93.5%
15,Cc1cc(C)n(-c2c(C)[nH]c3ccccc23)n1,inactive: 99.1%
16,COc1ccc(NC(=O)c2ccccc2-c2ccccc2)cc1,inconclusive: 121%
17,Cc1cc(O)ccc1N=Cc1c(C(F)(F)F)[nH][nH]c1=O,inactive: 99.6%
18,CCN(CC)C(=O)CSC(Nc1cccc(F)c1)=C(C#N)C#N,inconclusive: 56.7%
19,O=C(O)c1cc2ccccc2c2cc(Br)ccc12,inconclusive: -40.4%
20,COc1ccccc1CNC(=O)[C@@H]1CCCN1S(=O)(=O)c1ccc(C)cc1,inconclusive: 90.4%

row,SMILES,binding response (% of control)
1,Fc1ccc(-n2nnc(-c3cccnc3)n2)cc1,inactive: 94.9%
2,O=C(CSc1nc2ccc(Cl)cc2[nH]1)c1c[nH]c2ccccc12,inconclusive: 107%
3,CC(OC(=O)Cc1coc2cc3c(cc12)CCC3)C(=O)NC(N)=O (stereo not drawn),inconclusive: 94%
4,O=C(Cn1c(=O)sc2ccccc21)Nc1ccc(S(=O)(=O)N2CCCC2)cc1,inactive: 100%
5,COc1ccc(NC(=O)N(Cc2cc3cc(C)ccc3[nH]c2=O)CC2CCCO2)cc1 (stereo not drawn),inconclusive: 126%
6,CCOc1ccc(NC(=O)C2CCC(CNc3c(N4CCC(C)CC4)c(=O)c3=O)CC2)cc1 (stereo not drawn),inconclusive: 40.3%
7,CCN(CC)C(=S)Oc1ccc(Cl)cc1Cl,inconclusive: 142%
8,O=C(CSCc1cccc(Br)c1)N1CCOCC1,inactive: 102%
9,CCOC(=O)c1c(/N=C/C2=C(O)CC(C)(C)CC2=O)sc2c1CCCC2,inconclusive: 116%
10,CCOC(=S)NC(=O)c1sc2ccccc2c1Cl,inactive: 103%
11,Cc1cccc(-c2nnc(SCC(=O)C(C)(C)C)n2C)c1,inconclusive: 158%
12,COc1ccc(C2c3ccc(O)cc3Oc3ncn(CCCO)c(=N)c32)cc1 (stereo not drawn),inconclusive: 54.6%
13,Cc1c(-n2cccc2C=O)cccc1[N+](=O)[O-],inconclusive: 74.3%
14,CCCNC(=O)NC(=O)COC(=O)c1ccc(S(=O)(=O)N(C)c2ccccc2OC)cc1,inconclusive: 106%
15,Cc1ccc(F)c([C@H]2C3C=CCC(c4ccccc4)C3C(=O)N2Cc2ccccc2)c1 (stereo partly drawn),inconclusive: 56.8%
16,Cc1cc(Nc2c(C)n(C)n(-c3ccccc3)c2=O)n2c(nc3cc(F)c(F)cc32)c1C#N,inconclusive: 16.9%
17,CC1CC(=O)Nc2ccccc2N1S(=O)(=O)c1cccc(Cl)c1 (stereo not drawn),inactive: 97.2%
18,O=C(CCCc1nc2ccccc2s1)NCc1ccccc1F,inactive: 102%

# Some of the entries above, set out differently:
row	SMILES	binding response (% of control)
5	COc1ccc(NC(=O)N(Cc2cc3cc(C)ccc3[nH]c2=O)CC2CCCO2)cc1 (stereo not drawn)	inconclusive: 126%
10	CCOC(=S)NC(=O)c1sc2ccccc2c1Cl	inactive: 103%
